These are yes or no findings as the source states them, for the method shown. Some binding calls cover weakened binding; strength is not graded here. Tags and fused reporters may be left off the sequences shown.
Target: T1, full‐length recombinant A2AR protein (A2AR‐His, fragment A) (UniProt P29274 1-412)
T1 construct: adenosine receptor 2A (A2AR), full-length (fragment A); the printed end of fragment F (aa 412) fits the human protein; captured on beads by an anti-His antibody; also called full‐length N‐His‐A2AR; A2AR‐full length; source: Escherichia coli, His‐tagged recombinant protein; not shown: His, N-terminal, kept
Test: Luminex bead-based assay; A2AR‐His full length or fragments captured on Luminex beads conjugated with anti‐His antibody; TRAX in solution, detected by antibody and PE-conjugated antibody; with PBS, 30 µM GHCer or 30 µM GH‐biotin; PBS with 1% BSA, 37 °C, 60 min; signals normalised to full‐length A2AR/PBS/TRAX; both purified

B1: recombinant TRAX (His‐tagged) (natural protein, UniProt Q99598 1-290, looked up)
chain: MSNKEGSGGFRKRKHDNFPHNQRREGKDVNSSSPVMLAFKSFQQELDARHDKYERLVKLSRDITVESKRTIFLLHRITSAPDMEDILTESEIKLDGVRQKIFQVAQELSGEDMHQFHRAITTGLQEYVEAVSFQHFIKTRSLISMDEINKQLIFTTEDNGKENKTPSSDAQDKQFGTWRLRVTPVDYLLGVADLTGELMRMCINSVGNGDIDTPFEVSQFLRQVYDGFSFIGNTGPYEVSKKLYTLKQSLAKVENACYALKVRGSEIPKHMLADVFSVKTEMIDQEEGIS
notes: translin-associated factor X (TRAX); source: Escherichia coli, His‐tagged recombinant protein
Q: How did the binding turn out when B1 was run?
A: The binding was “binds”.
